According to the supplement of paper PMC6411743:
± gives the standard deviation of the averaged measurements. Only a part is listed here, and it is no random draw. Most values lie at the level of the controls, where differences are scatter.

Protein sequences, listed by entry. Tags and fused reporters are not part of them. Lines headed by an entry give the natural chain unless they say otherwise; changes in a name come on top.
UniProt Q96MX6, whole entry: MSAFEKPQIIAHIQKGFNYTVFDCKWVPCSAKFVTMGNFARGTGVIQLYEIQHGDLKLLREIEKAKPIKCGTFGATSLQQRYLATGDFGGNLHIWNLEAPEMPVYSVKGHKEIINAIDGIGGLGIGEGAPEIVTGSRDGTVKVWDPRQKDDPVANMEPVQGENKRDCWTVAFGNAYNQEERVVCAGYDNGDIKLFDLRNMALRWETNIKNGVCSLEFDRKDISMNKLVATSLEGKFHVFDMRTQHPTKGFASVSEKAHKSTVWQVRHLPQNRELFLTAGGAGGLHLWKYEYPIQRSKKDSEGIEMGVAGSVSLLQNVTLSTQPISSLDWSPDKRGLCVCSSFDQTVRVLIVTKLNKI
UniProt Q96DX4: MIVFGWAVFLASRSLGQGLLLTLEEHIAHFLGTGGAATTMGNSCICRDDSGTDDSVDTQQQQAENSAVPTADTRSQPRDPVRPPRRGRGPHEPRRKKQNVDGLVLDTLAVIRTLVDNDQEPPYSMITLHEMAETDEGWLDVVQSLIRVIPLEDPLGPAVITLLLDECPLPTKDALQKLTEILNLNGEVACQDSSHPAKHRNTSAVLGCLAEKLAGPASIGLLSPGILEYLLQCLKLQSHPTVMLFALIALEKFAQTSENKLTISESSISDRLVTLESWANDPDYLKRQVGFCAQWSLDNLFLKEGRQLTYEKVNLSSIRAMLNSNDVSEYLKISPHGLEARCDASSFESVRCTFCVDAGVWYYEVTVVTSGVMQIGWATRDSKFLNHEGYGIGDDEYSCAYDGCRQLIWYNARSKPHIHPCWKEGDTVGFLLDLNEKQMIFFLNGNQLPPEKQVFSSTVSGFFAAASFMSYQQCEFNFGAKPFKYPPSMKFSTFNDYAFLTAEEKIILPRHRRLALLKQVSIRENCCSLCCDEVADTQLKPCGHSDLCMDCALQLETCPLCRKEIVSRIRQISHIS
UniProt Q96RL1: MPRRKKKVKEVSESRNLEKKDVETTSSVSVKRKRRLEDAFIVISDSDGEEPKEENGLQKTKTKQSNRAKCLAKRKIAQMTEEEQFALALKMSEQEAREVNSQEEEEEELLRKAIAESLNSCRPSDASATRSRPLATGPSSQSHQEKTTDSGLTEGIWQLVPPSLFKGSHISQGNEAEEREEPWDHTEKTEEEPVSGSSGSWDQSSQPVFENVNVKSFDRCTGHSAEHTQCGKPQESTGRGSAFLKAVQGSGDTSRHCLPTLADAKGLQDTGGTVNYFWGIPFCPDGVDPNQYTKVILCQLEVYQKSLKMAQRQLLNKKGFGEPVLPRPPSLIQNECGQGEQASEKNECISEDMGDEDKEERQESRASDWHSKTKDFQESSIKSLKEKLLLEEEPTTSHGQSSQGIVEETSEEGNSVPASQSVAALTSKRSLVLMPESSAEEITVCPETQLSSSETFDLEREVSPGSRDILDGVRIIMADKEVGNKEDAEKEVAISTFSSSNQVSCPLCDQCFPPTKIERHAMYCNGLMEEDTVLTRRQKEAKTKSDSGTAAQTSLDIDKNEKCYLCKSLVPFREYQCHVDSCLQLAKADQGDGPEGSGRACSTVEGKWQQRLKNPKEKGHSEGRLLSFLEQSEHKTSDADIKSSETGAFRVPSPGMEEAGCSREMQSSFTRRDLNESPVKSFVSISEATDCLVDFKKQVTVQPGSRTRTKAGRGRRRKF
UniProt Q96EI5: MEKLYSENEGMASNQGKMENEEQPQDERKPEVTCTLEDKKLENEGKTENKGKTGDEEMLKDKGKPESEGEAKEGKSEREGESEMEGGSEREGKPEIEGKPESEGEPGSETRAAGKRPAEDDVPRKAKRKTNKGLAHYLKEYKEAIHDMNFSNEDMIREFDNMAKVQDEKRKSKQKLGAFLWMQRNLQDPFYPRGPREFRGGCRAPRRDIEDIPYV
UniProt Q96DZ1: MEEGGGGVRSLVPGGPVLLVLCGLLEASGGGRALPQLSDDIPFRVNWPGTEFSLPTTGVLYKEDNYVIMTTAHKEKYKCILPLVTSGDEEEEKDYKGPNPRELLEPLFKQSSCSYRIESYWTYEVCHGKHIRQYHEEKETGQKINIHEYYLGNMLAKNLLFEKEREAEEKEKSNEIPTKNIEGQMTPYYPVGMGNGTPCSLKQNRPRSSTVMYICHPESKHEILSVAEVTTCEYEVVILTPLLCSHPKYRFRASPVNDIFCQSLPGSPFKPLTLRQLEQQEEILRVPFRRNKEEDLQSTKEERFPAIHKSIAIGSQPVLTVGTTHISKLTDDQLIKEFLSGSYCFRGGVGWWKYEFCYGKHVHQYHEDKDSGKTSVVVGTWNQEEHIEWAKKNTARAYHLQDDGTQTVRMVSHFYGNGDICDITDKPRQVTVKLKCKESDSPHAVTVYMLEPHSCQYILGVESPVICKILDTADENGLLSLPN
UniProt Q96NC0: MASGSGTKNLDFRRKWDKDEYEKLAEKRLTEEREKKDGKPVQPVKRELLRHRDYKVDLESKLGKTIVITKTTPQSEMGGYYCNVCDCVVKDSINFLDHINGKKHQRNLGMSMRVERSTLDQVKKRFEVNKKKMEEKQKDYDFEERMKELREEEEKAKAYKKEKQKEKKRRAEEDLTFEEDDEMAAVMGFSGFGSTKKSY
UniProt Q96J01: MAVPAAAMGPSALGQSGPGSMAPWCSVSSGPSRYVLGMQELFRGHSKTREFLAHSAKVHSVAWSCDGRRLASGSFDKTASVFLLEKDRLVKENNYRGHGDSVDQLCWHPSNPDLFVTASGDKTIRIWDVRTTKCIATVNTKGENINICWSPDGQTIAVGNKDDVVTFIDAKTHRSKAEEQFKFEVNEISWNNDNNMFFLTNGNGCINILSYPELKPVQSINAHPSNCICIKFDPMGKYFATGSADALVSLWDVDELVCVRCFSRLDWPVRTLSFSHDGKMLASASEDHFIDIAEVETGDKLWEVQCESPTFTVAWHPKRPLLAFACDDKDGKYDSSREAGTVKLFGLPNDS
UniProt Q96HR9: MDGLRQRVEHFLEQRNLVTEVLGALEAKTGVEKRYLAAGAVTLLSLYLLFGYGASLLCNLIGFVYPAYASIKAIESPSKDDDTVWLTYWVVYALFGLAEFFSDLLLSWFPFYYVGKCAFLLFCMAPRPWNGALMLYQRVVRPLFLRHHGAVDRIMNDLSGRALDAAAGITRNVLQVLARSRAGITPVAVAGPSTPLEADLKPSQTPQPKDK
UniProt Q96S44: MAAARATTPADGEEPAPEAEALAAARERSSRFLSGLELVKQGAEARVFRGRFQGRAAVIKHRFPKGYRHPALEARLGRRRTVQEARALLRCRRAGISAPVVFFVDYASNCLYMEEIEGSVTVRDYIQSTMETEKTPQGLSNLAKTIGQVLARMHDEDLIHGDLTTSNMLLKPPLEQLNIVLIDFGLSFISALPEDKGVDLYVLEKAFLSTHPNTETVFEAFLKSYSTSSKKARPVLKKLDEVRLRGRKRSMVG
UniProt Q96S94: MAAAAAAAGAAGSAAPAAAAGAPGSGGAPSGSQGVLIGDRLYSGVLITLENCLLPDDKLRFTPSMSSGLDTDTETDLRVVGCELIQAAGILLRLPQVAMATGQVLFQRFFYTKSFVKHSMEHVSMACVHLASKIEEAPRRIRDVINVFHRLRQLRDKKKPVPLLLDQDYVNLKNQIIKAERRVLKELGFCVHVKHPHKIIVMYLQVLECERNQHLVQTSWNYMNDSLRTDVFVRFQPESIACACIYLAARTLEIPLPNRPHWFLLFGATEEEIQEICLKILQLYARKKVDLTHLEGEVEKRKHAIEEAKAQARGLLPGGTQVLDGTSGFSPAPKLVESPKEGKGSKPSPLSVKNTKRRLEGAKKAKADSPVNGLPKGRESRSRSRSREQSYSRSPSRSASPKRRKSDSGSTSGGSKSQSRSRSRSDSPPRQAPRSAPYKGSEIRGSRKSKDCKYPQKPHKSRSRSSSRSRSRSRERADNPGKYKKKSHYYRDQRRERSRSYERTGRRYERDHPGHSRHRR
UniProt Q96E39: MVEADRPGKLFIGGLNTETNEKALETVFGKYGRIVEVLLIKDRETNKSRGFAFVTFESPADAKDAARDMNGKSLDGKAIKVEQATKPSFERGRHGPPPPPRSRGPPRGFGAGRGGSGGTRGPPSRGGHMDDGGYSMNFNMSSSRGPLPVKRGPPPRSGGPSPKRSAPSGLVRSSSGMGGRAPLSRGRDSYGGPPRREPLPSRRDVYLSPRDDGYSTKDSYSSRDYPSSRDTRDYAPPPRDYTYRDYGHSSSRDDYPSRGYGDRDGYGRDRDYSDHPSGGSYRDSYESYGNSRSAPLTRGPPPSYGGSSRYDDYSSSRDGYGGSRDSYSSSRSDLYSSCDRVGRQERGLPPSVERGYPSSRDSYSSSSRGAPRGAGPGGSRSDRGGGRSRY
UniProt Q96IZ0: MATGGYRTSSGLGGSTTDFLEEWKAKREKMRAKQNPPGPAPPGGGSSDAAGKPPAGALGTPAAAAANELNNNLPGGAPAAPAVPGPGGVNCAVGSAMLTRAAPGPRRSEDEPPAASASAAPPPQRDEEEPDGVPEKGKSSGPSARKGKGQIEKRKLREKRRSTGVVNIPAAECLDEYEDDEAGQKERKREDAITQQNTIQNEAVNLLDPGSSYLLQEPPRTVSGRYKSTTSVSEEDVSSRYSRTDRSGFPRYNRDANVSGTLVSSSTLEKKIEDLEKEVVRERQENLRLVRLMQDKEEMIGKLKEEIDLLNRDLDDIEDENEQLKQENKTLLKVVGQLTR
UniProt Q96S90: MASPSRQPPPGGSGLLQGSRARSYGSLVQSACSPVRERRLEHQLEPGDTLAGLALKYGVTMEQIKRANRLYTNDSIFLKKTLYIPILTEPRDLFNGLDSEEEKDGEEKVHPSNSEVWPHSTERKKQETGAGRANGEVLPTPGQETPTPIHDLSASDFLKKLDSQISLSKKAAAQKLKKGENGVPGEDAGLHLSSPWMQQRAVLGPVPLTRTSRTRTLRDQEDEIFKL
UniProt Q96PK6: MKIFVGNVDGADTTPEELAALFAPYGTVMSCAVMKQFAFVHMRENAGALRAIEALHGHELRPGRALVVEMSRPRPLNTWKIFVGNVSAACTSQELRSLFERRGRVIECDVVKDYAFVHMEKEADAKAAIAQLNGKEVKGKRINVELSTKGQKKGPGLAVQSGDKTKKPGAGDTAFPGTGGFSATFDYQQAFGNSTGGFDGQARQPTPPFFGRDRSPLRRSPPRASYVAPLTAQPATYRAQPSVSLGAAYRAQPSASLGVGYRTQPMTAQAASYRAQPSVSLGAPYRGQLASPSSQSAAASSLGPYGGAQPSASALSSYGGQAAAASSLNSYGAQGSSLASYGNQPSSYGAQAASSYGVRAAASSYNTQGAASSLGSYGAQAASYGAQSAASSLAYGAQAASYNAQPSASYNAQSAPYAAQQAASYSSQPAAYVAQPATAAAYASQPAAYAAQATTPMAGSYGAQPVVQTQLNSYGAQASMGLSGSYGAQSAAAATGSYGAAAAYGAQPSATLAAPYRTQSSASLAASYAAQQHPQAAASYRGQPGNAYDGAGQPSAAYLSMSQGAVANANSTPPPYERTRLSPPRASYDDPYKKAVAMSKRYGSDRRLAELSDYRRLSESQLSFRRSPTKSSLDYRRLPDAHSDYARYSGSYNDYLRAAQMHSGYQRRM
UniProt Q96KQ4: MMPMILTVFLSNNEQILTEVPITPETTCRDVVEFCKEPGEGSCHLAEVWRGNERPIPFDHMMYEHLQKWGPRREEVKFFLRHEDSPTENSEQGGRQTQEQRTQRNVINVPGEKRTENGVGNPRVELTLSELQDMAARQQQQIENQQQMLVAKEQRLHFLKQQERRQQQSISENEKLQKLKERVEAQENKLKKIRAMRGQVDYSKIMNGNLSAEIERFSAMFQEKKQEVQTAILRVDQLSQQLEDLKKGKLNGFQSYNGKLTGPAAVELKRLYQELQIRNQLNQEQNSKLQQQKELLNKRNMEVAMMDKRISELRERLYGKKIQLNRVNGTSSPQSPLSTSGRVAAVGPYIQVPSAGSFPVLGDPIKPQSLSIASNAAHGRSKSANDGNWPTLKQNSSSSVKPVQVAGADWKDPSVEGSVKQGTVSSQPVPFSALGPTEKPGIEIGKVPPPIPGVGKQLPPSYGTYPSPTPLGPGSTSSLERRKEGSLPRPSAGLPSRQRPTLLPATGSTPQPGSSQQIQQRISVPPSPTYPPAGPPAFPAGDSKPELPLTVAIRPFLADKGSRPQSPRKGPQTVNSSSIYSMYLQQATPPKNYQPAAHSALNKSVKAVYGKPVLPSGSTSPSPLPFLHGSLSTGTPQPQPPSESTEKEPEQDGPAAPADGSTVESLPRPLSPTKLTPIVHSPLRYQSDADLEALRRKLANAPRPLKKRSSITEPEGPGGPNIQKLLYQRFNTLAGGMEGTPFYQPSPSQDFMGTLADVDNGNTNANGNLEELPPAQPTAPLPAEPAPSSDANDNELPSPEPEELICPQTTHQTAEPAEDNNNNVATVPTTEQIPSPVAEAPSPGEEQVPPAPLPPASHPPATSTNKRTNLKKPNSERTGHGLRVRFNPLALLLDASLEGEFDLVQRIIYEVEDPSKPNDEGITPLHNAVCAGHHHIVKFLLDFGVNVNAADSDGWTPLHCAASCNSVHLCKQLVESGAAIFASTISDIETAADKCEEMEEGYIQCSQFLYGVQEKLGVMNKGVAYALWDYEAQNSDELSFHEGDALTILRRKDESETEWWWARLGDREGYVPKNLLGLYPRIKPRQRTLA

Compound: Nc1ncnc2c1ncn2[C@@H]1O[C@H](COP(=O)(O)OP(=O)(O)OP(=O)(O)O)[C@@H](O)[C@H]1O [adenosine triphosphate]
Experiment: NP40-soluble protein abundance relative to vehicle (solubility fold change) (ratio); higher = more soluble protein in presence of ATP
Method in brief: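 In three independent experiments, Jurkat crude lysate made by Dounce homogenisation was treated for 10 min at room temperature and then 3 min at 37 °C with eight concentrations ranging from 0.1 to 10 mM. It was then solubilised with 0.8% NP40 plus benzonase for 60 min at 4 °C and ultracentrifuged. The supernatant was TMT-labelled for LC-MS/MS, and each value is the fold change against the detergent-processed vehicle for the same replicate, using vsn-normalised intensities.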

Target	NP40-soluble protein abundance (concentration: 0.1mM)	NP40-soluble protein abundance (concentration: 0.5mM)
ZC3HAV1L (UniProt Q96H79)	1 ± 0.037	0.993 ± 0.048
UniProt Q96DF8	0.95 ± 0.065	0.93 ± 0.053
UniProt Q96FZ2	1.01 ± 0.044	1.02 ± 0.064
KCTD12 (UniProt Q96CX2)	1.03 ± 0.093	0.9655 ± 0.0054
GCC1 (UniProt Q96CN9)	0.987 ± 0.027	0.977 ± 0.059
UniProt Q96SB3 and related entries	0.867 ± 0.08	0.865 ± 0.12
UniProt Q96EV8 and related entries	1.03 ± 0.038	0.965 ± 0.027
UniProt Q96BY6-3	1.05 ± 0.038	1.04 ± 0.033
NSL1 (UniProt Q96IY1)	1.03 ± 0.051	0.979 ± 0.047
PWWP2A (UniProt Q96N64)	0.946 ± 0.065	0.923 ± 0.075
WDR92 (UniProt Q96MX6)	1.03 ± 0.025	1.06 ± 0.064
HSPBAP1 (UniProt Q96EW2)	1.02 ± 0.071	0.956 ± 0.055
RBM18 (UniProt Q96H35)	0.783 ± 0.11	0.81383 ± 0.00027
DPH3 (UniProt Q96FX2)	1.08 ± 0.27	0.994 ± 0.23
UniProt Q96PU5 and related entries	0.984 ± 0.032	0.999 ± 0.026
UniProt Q96N46 and related entries	1.04 ± 0.024	1.03 ± 0.084
UniProt Q96JQ2	0.953 ± 0.14	0.945 ± 0.017
FAF2 (UniProt Q96CS3)	1.07 ± 0.13	1.03 ± 0.057
FBXL8 (UniProt Q96CD0)	1.01 ± 0.07	0.994 ± 0.11
UniProt Q96EY1 and related entries	0.967 ± 0.057	1.03 ± 0.085
UniProt Q96MG7	1 ± 0.095	0.977 ± 0.025
UniProt Q96RQ3 and related entries	1.08 ± 0.011	1.02 ± 0.041
RSPRY1 (UniProt Q96DX4)	1.05 ± 0.062	1.1 ± 0.12
ZC3H10 (UniProt Q96K80)	0.978 ± 0.079	0.9086 ± 0.0046

Target	NP40-soluble protein abundance (concentration: 0.1mM)	NP40-soluble protein abundance (concentration: 0.5mM)
UIMC1 (UniProt Q96RL1)	0.9873 ± 0.0098	0.997 ± 0.029
UniProt Q96P16 and related entries	1.03 ± 0.03	0.99 ± 0.034
UniProt Q96RF0-2|Q96RF0 and related entries	1.08 ± 0.14	1 ± 0.12
EXOC2 (UniProt Q96KP1)	1.05 ± 0.1	1.02 ± 0.052
UniProt Q96EI5 and related entries	0.937 ± 0.04	0.953 ± 0.046
CNDP2 (UniProt Q96KP4)	1.05 ± 0.058	1.07 ± 0.1
UniProt Q96SD1 and related entries	0.971 ± 0.038	0.978 ± 0.046
UniProt Q96DZ1 and related entries	1.08 ± 0.12	1.06 ± 0.076
LTV1 (UniProt Q96GA3)	0.984 ± 0.094	1.01 ± 0.063
UniProt Q96DB5	0.937 ± 0.058	0.957 ± 0.029
UniProt Q96P50 and related entries	1.07 ± 0.018	1.069 ± 0.006
UniProt Q96SN8 and related entries	1.01 ± 0.06	1.01 ± 0.096
RUFY1 (UniProt Q96T51)	1.01 ± 0.036	1.02 ± 0.045
UniProt Q96EB1 and related entries	0.988 ± 0.014	1.008 ± 0.01
CHCHD1 (UniProt Q96BP2)	1.01 ± 0.085	0.973 ± 0.21
UniProt Q96DA6 and related entries	0.863 ± 0.096	0.895 ± 0.15
TRMT61A (UniProt Q96FX7)	1.03 ± 0.025	1.02 ± 0.014
NUDT11 (UniProt Q96G61)	1.01 ± 0.04	0.951 ± 0.075
CDCA5 (UniProt Q96FF9)	0.989 ± 0.074	1.012 ± 0.0074
UniProt Q96SB8 and related entries	1.05 ± 0.036	1.06 ± 0.064
UniProt Q96IG2 and related entries	1.04 ± 0.024	0.96 ± 0.043
PTCD3 (UniProt Q96EY7)	0.98 ± 0.067	0.972 ± 0.098
METTL2A (UniProt Q96IZ6)	0.997 ± 0.082	0.944 ± 0.099
UniProt Q96HE7	0.943 ± 0.047	0.986 ± 0.018

Laid out differently: results already given.
Target,NP40-soluble protein abundance (concentration: 0.1mM),NP40-soluble protein abundance (concentration: 0.5mM)
ZC3HAV1L (UniProt Q96H79),1 ± 0.037,0.993 ± 0.048
HSPBAP1 (UniProt Q96EW2),1.02 ± 0.071,0.956 ± 0.055
FAF2 (UniProt Q96CS3),1.07 ± 0.13,1.03 ± 0.057

(next part)

Target	NP40-soluble protein abundance (concentration: 0.1mM)	NP40-soluble protein abundance (concentration: 0.5mM)
C9orf72 (UniProt Q96LT7)	1.15 ± 0.27	0.9953 ± 0.0061
ALG14 (UniProt Q96F25)	1.188 ± 0.0048	1.07 ± 0.049
PDLIM5 (UniProt Q96HC4)	1.01 ± 0.059	1.04 ± 0.062
MTFMT (UniProt Q96DP5)	1.1 ± 0.025	1.2 ± 0.074
UniProt Q96QE5 and related entries	1.07 ± 0.12	1.08 ± 0.019
UniProt Q96J02 and related entries	1.09 ± 0.023	1.12 ± 0.02
UniProt Q96NC0	0.973 ± 0.027	1.03 ± 0.027
UniProt Q96PY6 and related entries	0.987 ± 0.05	1.03 ± 0.015
THOC3 (UniProt Q96J01)	1.07 ± 0.084	1.14 ± 0.076
PANX1 (UniProt Q96RD7)	1.01 ± 0.054	0.968 ± 0.069
UniProt Q96QD8 and related entries	1 ± 0.059	1 ± 0.027
DCUN1D1 (UniProt Q96GG9)	0.971 ± 0.032	0.982 ± 0.056
DUS3L (UniProt Q96G46)	1.05 ± 0.044	1.05 ± 0.062
ZNF830 (UniProt Q96NB3)	1.1 ± 0.081	1.14 ± 0.048
UniProt Q96RT1 and related entries	1 ± 0.026	1 ± 0.048
UniProt Q96CG8 and related entries	0.976 ± 0.04	0.967 ± 0.042
UniProt Q96D96 and related entries	1.04 ± 0.085	1.07 ± 0.1
CCDC97 (UniProt Q96F63)	0.958 ± 0.065	0.932 ± 0.033
INTS4 (UniProt Q96HW7)	1.05 ± 0.025	1.07 ± 0.03
SGTB (UniProt Q96EQ0)	0.896 ± 0.22	0.877 ± 0.23
REEP6 (UniProt Q96HR9)	0.931 ± 0.11	0.951 ± 0.087
SPEN (UniProt Q96T58)	1.031 ± 0.0038	1.08 ± 0.024
UniProt Q96Q42 and related entries	1.31 ± 0.17	1.25 ± 0.18
PDXP (UniProt Q96GD0)	0.973 ± 0.026	0.979 ± 0.017

Target	NP40-soluble protein abundance (concentration: 0.1mM)	NP40-soluble protein abundance (concentration: 0.5mM)
UniProt Q96K49 and related entries	1.04 ± 0.047	0.969 ± 0.039
UniProt Q96K17	0.91 ± 0.1	0.947 ± 0.079
UniProt Q96Q11 and related entries	1 ± 0.052	1.05 ± 0.063
OPTN (UniProt Q96CV9)	1.004 ± 0.0097	0.966 ± 0.013
RBM17 (UniProt Q96I25)	1.04 ± 0.033	1.12 ± 0.061
MRPL53 (UniProt Q96EL3)	0.886 ± 0.17	0.875 ± 0.13
UniProt Q96EU6 and related entries	0.932 ± 0.064	0.934 ± 0.01
UniProt Q96CS2	0.93 ± 0.17	0.89 ± 0.15
COG3 (UniProt Q96JB2)	0.99 ± 0.1	1 ± 0.098
TP53RK (UniProt Q96S44)	0.979 ± 0.034	0.996 ± 0.038
CCNL2 (UniProt Q96S94)	1.05 ± 0.029	1.008 ± 0.0086
SNRNP40 (UniProt Q96DI7)	0.975 ± 0.03	1.03 ± 0.048
ZBTB10 (UniProt Q96DT7)	0.965 ± 0.072	1.05 ± 0.065
ATAD5 (UniProt Q96QE3)	1.09 ± 0.12	1.09 ± 0.12
UniProt Q96N66 and related entries	1.06 ± 0.067	1.04 ± 0.024
UniProt Q96JG6	1.04 ± 0.034	1 ± 0.053
UniProt Q96J84 and related entries	0.971 ± 0.02	0.938 ± 0.099
EFHD2 (UniProt Q96C19)	0.938 ± 0.051	0.94 ± 0.035
UniProt Q96SK2 and related entries	1.08 ± 0.083	1.05 ± 0.017
UniProt Q96RR4 and related entries	1.07 ± 0.036	1.09 ± 0.095
RAB39B (UniProt Q96DA2)	1.1 ± 0.13	1.08 ± 0.15
UniProt Q96IQ9-2|Q96IQ9	1 ± 0.063	0.954 ± 0.017
SNF8 (UniProt Q96H20)	1.02 ± 0.032	0.942 ± 0.057
GNPNAT1 (UniProt Q96EK6)	1.04 ± 0.076	1.06 ± 0.047

Target	NP40-soluble protein abundance (concentration: 0.1mM)	NP40-soluble protein abundance (concentration: 0.5mM)
UniProt Q96GS4	0.951 ± 0.011	0.916 ± 0.064
UniProt Q96ME1-4	1.03 ± 0.1	0.985 ± 0.035
RBMXL1 (UniProt Q96E39)	0.992 ± 0.019	1.1 ± 0.032
PAWR (UniProt Q96IZ0)	0.963 ± 0.04	0.98 ± 0.034
LYSMD1 (UniProt Q96S90)	0.999 ± 0.045	0.992 ± 0.023
UniProt Q96L93 and related entries	1.08 ± 0.055	1.04 ± 0.052
UniProt Q96IU4 and related entries	1 ± 0.015	0.965 ± 0.014
UniProt Q96RN5 and related entries	0.92 ± 0.1	0.976 ± 0.12
UniProt Q96BW5 and related entries	1.05 ± 0.048	1.04 ± 0.059
WDYHV1 (UniProt Q96HA8)	1.03 ± 0.028	0.991 ± 0.043
FAM136A (UniProt Q96C01)	0.902 ± 0.089	0.908 ± 0.14
UniProt Q96EP0 and related entries	1.05 ± 0.023	0.982 ± 0.039
RMI2 (UniProt Q96E14)	0.97 ± 0.095	0.915 ± 0.11
RBM14 (UniProt Q96PK6)	0.991 ± 0.023	1.01 ± 0.028
ALKBH3 (UniProt Q96Q83)	1.01 ± 0.05	1.01 ± 0.06
UHRF2 (UniProt Q96PU4)	1.04 ± 0.041	1.04 ± 0.035
UniProt Q96JG8 and related entries	1.06 ± 0.053	1.15 ± 0.014
UniProt Q96RP9 and related entries	1.04 ± 0.053	1.05 ± 0.053
UniProt Q96KQ4	1 ± 0.035	0.984 ± 0.043
NACC1 (UniProt Q96RE7)	0.954 ± 0.022	0.928 ± 0.015
ANKRD27 (UniProt Q96NW4)	1.06 ± 0.06	1 ± 0.034
UniProt Q96G03 and related entries	1.03 ± 0.093	1.03 ± 0.055
DNAJC1 (UniProt Q96KC8)	1.01 ± 0.07	0.984 ± 0.019
PRMT6 (UniProt Q96LA8)	1.01 ± 0.086	1 ± 0.017
